From the RNAGym collection of RNA variant scans (doi:10.1126/science.aae0568)
Variants at the floor of the assay are shown more often than the library holds them.

B1: tRNA (parent)
chain: GUUCCGUUGGCGUAAUGGUAACGCGUCUCCCUCCUAAGGAGAAGACUGCGGGUUCGAGUCCCGUACGGAACG

Variants of: B1
Test: yeast fitness relative to wild type (ratio to wild type); higher = fitter; tRNA-Arg(CCU), competitive growth, 37 C, YPD
Procedure, shortened: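 Genotype frequency changes were the basis for Darwinian fitness relative to wild type. The frequencies came from 100-nucleotide paired-end sequencing of gene amplicons from the start population and each end population of pooled yeast strains with tRNA-Arg(CCU) gene variants at the native locus. Competition ran in YPD at 37°C for 24 hours in six replicates, genotypes needed ≥ 100 starting reads, and estimates < 0.5 were set to 0.5.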

Yeast fitness, ≤ 0.5:
GUUCCGUUGGAGUAAUGGUAACGCGUCUCACUCCUAAGGAGAAGACUGCGGGUUCGAGUCCCGAACGGAACG
GUUCCGUUGGAGUAAUGGUAACGCGUCUCCACCCUAAGGAGAACACUGCGGGUUCGAGUCCCGUGCGGAACG
GUUCCGUUGGAGUAAUGGUAACGCGUCUCCAUCCUAAGGAGAAGACAGCGGGUUCGAGUCCCGUACGGAACG
GUUCCGUUGGAGUAAUGGUAACGCGUCUCCGUCCUAAGGAGAAGACUGCAGGUUCGAGUCCCGUACGGAACG
GUUCCGUUGGAGUAAUGGUAACGCGUCUCCUUCCUAAGGACACGACUGCGGGUUCGAGUGCCGUACGGAACG
GUUCCGUUGGAGUAAUGGUAACGCGUCUCCCUCGUAAGGAGAAGCCUGCGGCUUCGAGUCCCGUACGGAACG
GUUCCGUUGGAGUAAUGGUAACGCGUCUCCCUCUUAAGGAGGAGACUGCGGGUUCGAGUCCCGUACGGAACG
GUUCCGUUGGAGUAAUGGUAACGCGUCUCCCUCCUAAGGAGAAGAGUGCGGGUUCGAGUCCCGUGCGGAACG
GUUCCGUUGGAGUAAUGGUAACGCGUCUCCCUCCUAAGGAGAAGAUUGCGGGUUCCAGUCCCGUACGGGACG
GUUCCGUUGGACUAAUGGUAACGCGUCUCCCUCCUAAGGAGAAGACUGCGGGUUCGAGUCCCAUACGGAACG
GUUCCGUUGGACUAAUGGUAACGCGCCUCCCUCCUAAGGAGAAGACUGCGGGUUCGAGUCCCGUACGGAACG
GUUCCGUUGGAGUAAUAGUAACGCGUCUCCCUUCUAAGGAGAAGACUGCGGGUUCGAGUCCCGUACGGACCG
GUUCCGUUGGAGUAAUAGUAACCCGUCUCCCGCAUAAGGAGAAGACUGCGGGUUCGAGUCCCGUACGGAACG
GUUCCGUUGGAGUAAUCGUAACGCGUCUCCCUCCUAAGGAGAAGACUGAGGGUUCGAGUCCCGUCCGGAACG
GUUCCGUUGGAGUAAUCGUAACGCGUCUCCCUCCUAAGGAGAAGACUGCGGGUUCGACUCCCGUACGGAACG
GUUCCGUUGGAGUAAUGAUAACGCGUCUCCCUCCUAAGGAGAAGACUGCGGGUUCGAAUCCCGUACGGAACG
GUUCCGUUGGAGUAAUGAUAACGCGUCGCCCUCUUAAGGAGAAGACUGCGGGUUCGAGUCCCGUACGGAACG
GUUCCGUUGGAGUAAUGGUAACGCGUCUCCCUCCUAAGGAAAAGACAGCGGGUUCGAGUCCCGUCCGGAACG
GUUCCGUUGGAGUAAUGGUAACGCGUCUCCCUCCUAAGGAGAACACUGCGGGUUCGAGUCCCGUACCGAACG
GUUCCGUUGGAGUAAUGGUAACGCGUCUCCCUCCUAAGGAGAAGACUGCCGGUUCGAGUCCGGUACGGAACG
GUUCCGUUGGAGUAAUGGUAACGCGUCUCCCUCCUAAGGAGAAGACUGCGAGUUCGAGUCCCGUACGGCACG
GUUCCGUUGGAGUAAUGGUAACGCGUCUCCCUCCUAAGGAGAAGACUGCGAGUUCGAGUCCCGUACGGUGCG
GUUCCGUUGGAGAAAUGGUUACGCGUCUGCCUCCUGAGGAGAAGAUUGCGGGUUCGAAUCCCGUACGGAACG
GUUCCGUUGGAGAAAUGGUAACGCGUCUCCCUCCUAAGGAGUAGACUGCGGGUUAGAGUCCCGUACGGUACG
GUUCCGUUGGAGCAAUGGUAACGCGUAUCCCUCCUAAGGACAAGACUGCGGGUUCGAGUCCCGUACGGAACG
GUUCCGUUGGAGUAACGGUAACGCGUCUCCUUCCUAAGGAGAAGACUGCGGGUUCGAGUCCCGUACGGAACG
GUUCCGUUGGAGUAACGCUAACGCGUCUCCCUCCUAAGGAGAAGACUGCGGGUUCGAGUCCCGUACGGAACG
GUUCCGUUGGAGUAACGCUAACGCGUCUCCCUCCUGAGGAGAAGCCUGCGGGUUCGCGUCCCGUACGCAACG
GUUCCGUUGGAGUAACGGUAACGCGUCUCCCGCCUAAGGAGAAGACUGGGGGUUAGAGUCCCGUGCGGAACG
GUUCCGUUGGAGUAAUGGAAACGCGUCUACCACCUAAGGAGAAGACUGCGGGUCGGAGUGCCGUACGGAUCG
GUUCCGUUGGAGUAAUGGGAACGCGUCUCCCUCCUGAGGAGAAGACUGCGGGUCCGAGUCCCGUACGGAACG
GUUCCGUUGGAGUAAUGGUAACGCGCCUGCUUCCUAAGGAGAAGACUGCGGGUUCGAGUCCCGUAAGGAACG
GUUCCGUUGGAGUAAUGGUAACGCGUCACCCUCCUAAGGAGAAGACUGCGGGUUCGAGUCCCGUACCGAACG
GUUCCGUUGGAGUAAUGGUAACGCGUCGCCCUACUAAGGAGAAGGCUGCGGGUUCGAGUCCCGUACGGAACG
GUUCCGUUGGAGUAAUGGUAACGCGUCUCCCAUCUAAGGAGAAGACAGCGGGUUCGAGCCCCGUACGGAACG
GUUCCGUUGGAGUAAUGGUAACGCGUCUCCCUCCAAAGGAGAAGACUGCGGGUUCGAGUCUCGUACGGAACG

Yeast fitness, 0.596:
GUUCCGUUGGAGUAAUGGUAACGCGUCUCCCUCCUAAGGAGAAGACUGCGGCUUCGAGUCCCGUACGGAACG

Yeast fitness, 0.533:
GUUCCGUUGGAGUAAUGGUAACGCGUCUCCCUCCUAAGGAGAAGACUGCGGGUUCAAGUCCCGUAGGGAACG
